Assay results from US20050118615A1 (COMPUGEN, published 2005).
Results are given in words; binding and its absence hold for the method and conditions named. Some entries that bind do so weakly or less than the wild type. Sequences can lack the tags named with a protein.

Protein sequences, listed by entry. Tags and fused reporters are not part of them. Residues count along the entry.
UniProt P08476, residues 311-426: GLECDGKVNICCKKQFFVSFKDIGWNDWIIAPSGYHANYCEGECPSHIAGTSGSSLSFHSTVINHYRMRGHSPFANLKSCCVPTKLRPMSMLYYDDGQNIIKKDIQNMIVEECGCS

How the values were obtained:
[1] = target: recombinant human Activin A (R&D Systems) (human) (UniProt P08476); test: pull-down on Talon metal affinity resin with immobilised His-hCHL2, immunoblot with anti-Activin goat polyclonal antibody
[2] = target: recombinant human Activin A (R&D Systems) (human) (UniProt P08476); test: pull-down on Talon metal affinity resin with immobilised His-hCHL2, immunoblot with anti-Activin A antibody
[3] = target: recombinant human Activin A (R&D Systems) (human) (UniProt P08476); test: in vitro binding assay with His-tagged hCHL2

Measured: binding

B1: His-tagged hCHL2 (variant II), secreted from COS-7 cells transfected with pcDNA4/myc-His-hCHL2 (other, not shown: small tags and cut ends)
chain: RARPDMFCLFHGKRYSPGESWHPYLEPQGLMYCLRCTCSEGAHVSCYRLHCPPVHCPQPVTEPQQCCPKCVEPHTPSGLRAPPKSCQHNGTMYQHGEIFSAHELFPSRLPNQCVLCSCTEGQIYCGLTTCPEPGCPAPLPLPDSCCQACKDEASEQSDEEDRVQSLHGVRHPQDPCSSDAGRKRGPGTPAPTGLSAPLSFIPRHFIPKGAGSTTVKIVLKEKHKKACVHGGKTYSHGEVWHPAFRAFGPLPCILCTCEDGRQDCQRVTCPTEYPCRHPEKVAGKCCKICPEDKADPGHSEISSTRCPKAPGRVLVHTSVSPSPDNLRRFALEHEASDLVEIYLWKLVKDEETEAQRGEVPGPRPHSQNLPLDSDQESQEARLPERGTALPTARWPPRRSLERLPSPDPGAEGHGQSRQSDQDITKT
notes: also called His-tagged hCHL2 protein
binds: all assays above
